In paper PMC7862700:
The list shows a part of the results, in another mix than the full data. At the low end of the ranking the order means little.

Amino acid sequences for entries named in this document (tags omitted). A change or cut given only in a name is not applied to a line headed by its entry.
UniProt P41212: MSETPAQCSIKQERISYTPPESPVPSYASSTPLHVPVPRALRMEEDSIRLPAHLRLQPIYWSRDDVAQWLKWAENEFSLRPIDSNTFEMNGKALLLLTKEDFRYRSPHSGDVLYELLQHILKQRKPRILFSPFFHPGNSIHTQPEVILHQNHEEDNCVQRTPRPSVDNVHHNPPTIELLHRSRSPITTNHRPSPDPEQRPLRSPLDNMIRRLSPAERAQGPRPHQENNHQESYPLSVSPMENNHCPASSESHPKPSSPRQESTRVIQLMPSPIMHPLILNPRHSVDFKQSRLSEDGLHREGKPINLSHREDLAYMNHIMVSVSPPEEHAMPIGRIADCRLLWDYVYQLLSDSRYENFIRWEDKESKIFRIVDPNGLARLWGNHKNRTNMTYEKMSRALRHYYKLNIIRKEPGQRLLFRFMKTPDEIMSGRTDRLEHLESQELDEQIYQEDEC

target: ETV6 (UniProt P41212); assay: DAPPL (digital affinity profiling via proximity ligation, sequencing); settings: 10 mM Tris-HCl pH 7.5, 50 mM NaCl, 1 mM DTT, 4% glycerol, room temperature, 30 min; GST-TFs on glutathione beads, 16-mer random dsDNA library, 0.1% …; high values mean tight binding; double strand, one strand shown; scale: fold enrichment (6-mer frequency, TF over GST control)

Sequence | binding signal
TGTGCC | 1.21
ACAAGA | 0.934
GCTACA | 1.17
AGCTCA | 1.1
CCCCTA | 1.22
CCCCCC | 1.06
TAACCA | 1.04
AAGCGC | 1.15
TGATGT | 1.22
TTCCGA | 1.85
ACAGGA | 1.19
CCGTCT | 1.39
GCGCTT | 1.33
AAGGCT | 1.02
TTACAG | 1.19
TGTCAT | 1.11
ATTATA | 1.3
AGATGT | 0.948
GCAATT | 0.955
AAAGCA | 1.05

A second format for part of the listing above:

| Sequence | binding signal |
| --- | --- |
| AAGGCT | 1.02 |
| GCAATT | 0.955 |

Later entries

Sequence | binding signal
GCTTAC | 1.03
ACATAA | 1.08
GAAGCG | 1.43
ATATTC | 1.32
ACCTTG | 1.17
CCACCC | 1.24
ATAGGC | 1.04
GATATG | 1.04
TTATCG | 1.27
TATCTT | 1.18
CTATTT | 1.9
CCAGAA | 0.964
CACCCG | 1.11
TTACGT | 1.09
CCTTAG | 1.23
TCCCGG | 2.46
GCCTCT | 1.35
GCTAGT | 0.973
AGGCTT | 0.993
ACAAAA | 1.17
